In paper PMC11425230:
These are yes or no findings as the source states them, for the method shown. Binding seen in cells or lysates may run through a third protein. Some binding calls cover weakened binding; strength is not graded here.

Sequences of proteins named here, by UniProt entry; tags and fusion partners are left off. Residues count along the entry.
UniProt Q08345, residues 19-913: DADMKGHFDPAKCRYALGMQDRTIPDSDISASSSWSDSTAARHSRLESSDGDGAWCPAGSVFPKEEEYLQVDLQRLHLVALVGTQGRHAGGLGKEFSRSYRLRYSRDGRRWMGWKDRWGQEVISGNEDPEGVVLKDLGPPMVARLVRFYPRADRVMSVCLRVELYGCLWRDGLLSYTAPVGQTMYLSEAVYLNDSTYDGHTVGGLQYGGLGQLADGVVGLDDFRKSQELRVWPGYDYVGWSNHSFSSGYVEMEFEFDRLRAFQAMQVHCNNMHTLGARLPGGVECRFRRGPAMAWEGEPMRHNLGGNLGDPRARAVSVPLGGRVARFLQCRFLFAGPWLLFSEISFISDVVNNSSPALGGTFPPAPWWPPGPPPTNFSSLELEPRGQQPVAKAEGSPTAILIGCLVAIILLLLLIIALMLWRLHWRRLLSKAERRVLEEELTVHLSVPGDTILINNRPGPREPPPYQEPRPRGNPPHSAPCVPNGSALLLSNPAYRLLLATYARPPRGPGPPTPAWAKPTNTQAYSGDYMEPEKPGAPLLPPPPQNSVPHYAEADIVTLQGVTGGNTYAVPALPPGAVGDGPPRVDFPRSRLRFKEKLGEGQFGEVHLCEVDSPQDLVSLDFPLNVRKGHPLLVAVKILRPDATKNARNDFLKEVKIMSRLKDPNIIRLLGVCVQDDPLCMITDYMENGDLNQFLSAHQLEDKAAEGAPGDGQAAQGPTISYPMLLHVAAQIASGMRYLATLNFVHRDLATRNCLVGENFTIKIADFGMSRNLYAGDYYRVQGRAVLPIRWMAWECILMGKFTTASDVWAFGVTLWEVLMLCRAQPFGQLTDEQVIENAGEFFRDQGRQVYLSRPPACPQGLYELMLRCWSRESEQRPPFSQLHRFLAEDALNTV
UniProt Q16665: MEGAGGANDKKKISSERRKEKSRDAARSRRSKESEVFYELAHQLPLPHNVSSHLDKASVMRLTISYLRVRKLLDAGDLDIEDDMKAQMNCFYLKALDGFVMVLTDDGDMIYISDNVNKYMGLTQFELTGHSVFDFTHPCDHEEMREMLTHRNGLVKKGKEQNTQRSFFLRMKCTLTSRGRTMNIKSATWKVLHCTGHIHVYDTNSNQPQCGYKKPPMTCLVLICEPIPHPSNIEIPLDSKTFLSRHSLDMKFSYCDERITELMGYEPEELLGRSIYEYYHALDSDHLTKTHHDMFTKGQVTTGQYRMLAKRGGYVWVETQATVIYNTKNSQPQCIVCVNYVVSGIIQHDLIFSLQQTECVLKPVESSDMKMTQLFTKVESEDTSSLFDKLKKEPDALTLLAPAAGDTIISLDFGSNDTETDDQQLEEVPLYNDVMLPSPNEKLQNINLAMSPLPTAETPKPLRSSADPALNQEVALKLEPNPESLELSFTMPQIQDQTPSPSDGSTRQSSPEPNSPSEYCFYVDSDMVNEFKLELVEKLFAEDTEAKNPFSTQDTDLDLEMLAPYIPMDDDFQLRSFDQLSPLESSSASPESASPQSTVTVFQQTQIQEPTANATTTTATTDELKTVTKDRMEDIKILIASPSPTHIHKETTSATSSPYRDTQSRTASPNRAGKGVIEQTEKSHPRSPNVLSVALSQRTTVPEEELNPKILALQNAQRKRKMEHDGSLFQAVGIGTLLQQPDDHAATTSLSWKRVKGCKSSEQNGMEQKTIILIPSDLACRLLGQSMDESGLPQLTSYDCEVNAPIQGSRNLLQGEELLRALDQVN

Key:
[1] = target: HA-tagged DDR1 (pEZ-M07-HA-DDR1) (UniProt Q08345); test: co-IP; lysates of HEK293T cells co-transfected with DDR1-HA and Flag-tagged HIF-1α or its deletion mutants; anti-HA or anti-Flag antibody, Protein A/G magnetic beads at 4 °C; western blot
[2] = target: discoidin domain receptor 1 (DDR1), full-length cDNA in the lentiviral vector pEZ-Lv201 (UniProt Q08345); test: co-IP; lysates of HGC27 and AGS cells transduced with the DDR1-expressing or control vector; IP lysis buffer; anti-DDR1 or anti-HIF-1α antibody overnight, Protein A/G magnetic beads at 4 °C for 2 h; western blot
[3] = target: hypoxia-inducible factor-1α (HIF-1α), endogenous in gastric cancer cells (human (endogenous in HGC27 and AGS)) (UniProt Q16665); test: as above

“Flag-tagged HIF-1α, full length (pEZ-M14-Flag-HIF-1α) (from UniProt Q16665 1-826)” was tested. Which binding [1] did it give?
The binding was “binds”.

Which binding [2] does the source give for “hypoxia-inducible factor-1α (HIF-1α), endogenous in gastric cancer cells (from UniProt Q16665 1-826)” here?
Its binding is “binds”.

“discoidin domain receptor 1 (DDR1), full-length cDNA in the lentiviral vector pEZ-Lv201 (from UniProt Q08345 19-913)” was tested. Which binding [3] did it give?
The binding was “binds”.
